Reference: patent publication US20200289563A1 (WUXI BIOLOGICS IRELAND, published 2020)
Residue numbers refer to the chain shown, from its start. Results are given in words; binding and its absence hold for the method and conditions named. Some binding calls cover weakened binding; strength is not graded here.

T1: human CD19 (human, UniProt P15391 20-556)
T1 sequence (looked up): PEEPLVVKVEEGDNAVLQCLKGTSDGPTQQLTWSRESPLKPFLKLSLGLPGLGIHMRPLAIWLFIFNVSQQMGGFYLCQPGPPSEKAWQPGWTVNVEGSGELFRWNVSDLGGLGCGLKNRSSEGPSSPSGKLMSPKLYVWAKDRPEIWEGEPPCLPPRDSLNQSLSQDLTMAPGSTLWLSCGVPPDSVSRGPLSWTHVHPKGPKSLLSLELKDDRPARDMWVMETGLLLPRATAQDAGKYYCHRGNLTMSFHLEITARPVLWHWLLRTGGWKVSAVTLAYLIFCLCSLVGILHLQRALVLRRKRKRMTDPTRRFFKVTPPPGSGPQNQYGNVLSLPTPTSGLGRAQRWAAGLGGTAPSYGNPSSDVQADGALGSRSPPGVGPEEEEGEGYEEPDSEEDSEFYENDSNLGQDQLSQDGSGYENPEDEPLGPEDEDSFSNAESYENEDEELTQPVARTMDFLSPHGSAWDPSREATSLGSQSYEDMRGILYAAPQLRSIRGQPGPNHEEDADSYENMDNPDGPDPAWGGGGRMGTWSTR

B1: WBP7011_4.202.9 (antibody, mouse IgG2a, V domains shown)
VH: EIQLQQSGPELVKPGASVKVSCKASGYAFTSYNMYWVKQSHGKSLEWIGYIDPYNGDTTYNQKFKGKATLTVDKSSSTAYMHLNSLTSEDSAVYYCLTTAYAMDYWGQGTSVTVSS
VL: QIVLTQSPAIMSASLGEEITLTCSASSTVNYMHWYQQKSGTSPKLLIYSTSNLASGVPSRFSGSGSGTFYSLTIRSVEAEDAADYYCHQWSSYPYTFGGGTKLEIK
notes: also called W7011-4.202.9
B2: WBP7011_4.225.7 (antibody, mouse IgG2a, V domains shown)
VH: B1 VH
VL: B1 VL
notes: also called W7011-4.225.7
B3: WBP7011-4.100.1 (antibody, V domains shown)
VH: EVQLQQSGPELVKPGASVKMSCKASGYTFTSYVIHWVKQKPGQGLEWIGYINPYNDGAEYTEKFKGKATLTSDKSSSTAYMELSSLTSEDSTVYYCARGPYYYGGSPFDYWGQGTTLTVSS
VL: DAVMTQTPLSLPVSLGDQASISCRSSQSLENSNGNTYLNWYLQKPGQSPQLLIYRVSNRFSGVLDRFSGSGSGTDFTLKISRVEAEDLGVYFCLQVTHVPYTFGGGTKLEIK
notes: also called W7011-4.100.1
B4: WBP7011-4.15.10 (antibody, V domains shown)
VH: B3 VH with I34M, V37M, A58T, T61H, T92A, Y94F, Y110F
VL: B3 VL
notes: also called W7011-4.15.10
B5: WBP7011-4.34.11 (antibody, V domains shown)
VH: B3 VH with S31N, I51F, A58T, T61N, G66A, T92A, R98K, G105S
VL: B3 VL
B6: WBP7011-4.106.3 (antibody, V domains shown)
VH: B3 VH with T30S, T61A, T78S, S84G, T92A
VL: B3 VL
notes: also called W7011-4.106.3
B7: WBP7011_4.56.1 (antibody, V domains shown)
VH: B3 VH with S31N, A58T, T61N, K74T, E82A, T92A, A97T
VL: B3 VL
notes: also called W7011-4.56.1
B8: WBP7011_4.108.3 (antibody, V domains shown)
VH: B3 VH with K19E, V37L, T61N, E82D, S84N, T92A, G105S
VL: B3 VL
notes: also called W7011-4.108.3
B9: WBP7011_4.194.10 (antibody, V domains shown)
VH: B3 VH with I34M, A58T, E59K, T61N, T92A, G105S
VL: B3 VL with S28T, A85T
notes: also called W7011-4.194.10
B10: WBP7011_4.231.5 (antibody, V domains shown)
VH: B3 VH with I34M, A58T, E59Q, T61N, T92A, G104S, G105P
VL: B3 VL
notes: also called W7011-4.231.5
B11: WBP7011-4.87.6 (antibody, V domains shown)
VH: QVQLQQSGAELVRPGSSVKISCKASGYAFSTYWMNWVKQRPGQGLEWIGQIYPGDDDTKYNGKFKGKASLTADKSSSTAYMQLISLTSEDSAVYFCARRYFRYDYWYSDVWGAGTTVTVTS
VL: DIQMTQTTSSLSASLGDRVTISCRASQDISNYLNWYQQKPDGTVKLLIYYTSRLHSGVPARFSGSGSGTDYSLTISNLEQEDIATYFCHQGNTLPLTFGAGTKLELK
B12: WBP7011_4.155.8 (antibody, V domains shown)
VH: B1 VH
VL: B1 VL

What follows are binders tested against T1, human CD19 (assay: flow cytometry on Ramos cells).
Protocol: The Ramos cells were plated in 96-well U-bottom plates (BD) at a density of 1×10⁵ cells/well. The purified antibody were serially diluted in the staining buffer (1×PBS/1% BSA) and incubated with cells for 1 hr at 4° C. The cells were then washed twice with staining buffer (BSA/1×PBS). […] The cells were then washed twice and re-suspended in 100 μL staining buffer. The fluorescence intensity was measured by flow cytometry (BD Canto II) and analyzed by FlowJo.
Binding activity of the selected subclones were tested on Ramos cell by flow cytometry (FIG. 4).

Binder	binding
B1	binds
B2	binds

These binders were tested against T1, human CD19 (assay: FACS on Ramos cells (human CD19)).

Binder	binding
B1	binds
B2	binds

The binders below were run against T1, human CD19 (assay: FACS of hybridoma subclones on CD19 cell line).

Binder	binding
B1	binds
B2	binds

What follows are binders tested against T1, human CD19 (assay: flow cytometry on CD19 transfected CHO-K1 cells).

Binder	binding
B1	binds
B2	binds

What follows are binders tested against cynomolgus monkey CD19 (cynomolgus monkey) (assay: flow cytometry on cynomolgus CD19 transfected CHO-K1 cells).

Binder	binding
B1	binds
B2	binds
B3	binds
B4	binds
B5	binds
B6	binds
B7	binds
B8	binds
B9	binds
B10	binds
B11	binds
B12	binds

The binders below were run against cynomolgus monkey CD19 (cynomolgus monkey) (assay: FACS on cynomolgus monkey CD19 transfected CHO-K1 cells (WBP701.CHO-K1.cynoPro1)).

Binder	binding
B1	binds
B2	binds
B3	binds
B4	binds
B5	binds
B6	binds
B7	binds
B8	binds
B9	binds
B10	binds
B11	binds
B12	binds
